This note sets out measurements from paper PMC2701997.

For this test, the target named is T1, GFP-Lin7 (mouse) (UniProt Q8JZS0).
T1 sequence: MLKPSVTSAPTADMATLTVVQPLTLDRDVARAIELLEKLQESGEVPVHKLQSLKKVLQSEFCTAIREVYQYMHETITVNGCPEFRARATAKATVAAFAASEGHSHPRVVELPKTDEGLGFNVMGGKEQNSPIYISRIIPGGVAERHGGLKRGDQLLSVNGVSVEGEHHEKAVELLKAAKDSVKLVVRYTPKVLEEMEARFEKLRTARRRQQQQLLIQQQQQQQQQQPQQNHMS
Nature of the test: co-IP; total extract (1 mg/ml) of WM115 cells expressing LIN7-GFP or GFP; anti-GFP 2 h at 4°C, protein A-Sepharose 90 min at 4°C; blots with anti-AQP-1 and anti-GFP.

These are yes or no findings as the source states them, for the method shown. In cells and extracts the contact can be indirect. Some binding calls cover weakened binding; strength is not graded here. Tags and fused reporters may be left off the sequences shown.

B1: AQP1 (protein, UniProt P29972 1-269)
chain: MASEFKKKLFWRAVVAEFLATTLFVFISIGSALGFKYPVGNNQTAVQDNVKVSLAFGLSIATLAQSVGHISGAHLNPAVTLGLLLSCQISIFRALMYIIAQCVGAIVATAILSGITSSLTGNSLGRNDLADGVNSGQGLGIEIIGTLQLVLCVLATTDRRRRDLGGSAPLAIGLSVALGHLLAIDYTGCGINPARSFGSAVITHNFSNHWIFWVGPFIGGALAVLIYDFILAPRSSDLTDRVKVWTSGQVEEYDLDADDINSRVEMKPK
For the molecule B1, the binding entry is listed as “binds”.
